From PubChem BioAssay AID1625 (Sanford-Burnham Center for Chemical Genomics, 2009)
The whole screen tested about 190,000 compounds, of which about 570 (0.3%) were called active. The inconclusive results got no clear call from the source; some entries with a clear call stand among them for comparison.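 How the source made its calls: active means z-score above 3 at 5 µM with at least 500 cells counted in the well; inconclusive means wells under 500 cells, flagged as cytotoxic or low count; inactive means the rest.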

Assay: up-regulation of insulin promoter-GFP reporter – imaging, high-content screening, mouse beta cells (AID 1625)
Conditions: MIN6 insulin promoter-GFP reporter, at 5 µM, stronger effect = higher value

SMILES | z-score
COc1ccccc1NCC(=O)NNCC(=O)Nc1ccc(F)c(Cl)c1 | inactive: -0.25
Cc1c(C(=O)NCC2COc3ccccc3O2)oc2ccc(S(=O)(=O)N3CC(C)CC(C)C3)cc12 (centres undefined) | inconclusive: -2.08
CCc1ccc2c(c1)C1(NN=C(c3ccc(C)cc3)S1)C(=O)N2 (centres undefined) | inconclusive: -1.92
Clc1ccc(OCCN2CCN(c3ncnc4sccc34)CC2)cc1 | inconclusive: -2.78
N#C/C(=C\C1=C(N2CCOCC2)C(=C\c2ccc(Cl)cc2)/CC1)C(=O)Nc1ccccc1F | active: 3.27
COc1ccc(Br)cc1C(C[N+](=O)[O-])c1c(N)n(C)c(=O)n(C)c1=O (centres undefined) | inconclusive: -4.85
Cc1nc2ccc(NS(=O)(=O)c3ccc4c(c3)OCCO4)cc2s1 | inconclusive: -11.6
COc1ccc(S(=O)(=O)Cc2ccc(C(=O)N3CCOCC3)o2)cc1 | inconclusive: -5.11
CCOc1cc(CNCCc2ccc(S(N)(=O)=O)cc2)cc(Cl)c1OCc1ccccc1 | inconclusive: -2.31
Cc1cccc(Oc2nccc(C(F)(F)F)c2C(=O)Nc2ccc(F)cc2F)c1 | active: 3.57
O=C1/C(=C/c2ccncc2)CCC/C1=C\c1ccncc1 | inconclusive: -2
CCOc1cc(S(=O)(=O)NCc2ccncc2)ccc1Cl | inconclusive: -4.2
CN(C)c1ccc(NC2=C(Cl)C(=O)c3ccccc3C2=O)cc1 | inconclusive: -1.84
CC(=O)c1cccc(NS(=O)(=O)c2ccc(N/C=C\C(=O)c3ccc(F)cc3)cc2)c1 | inconclusive: -1.3
O=C(c1cc2sccc2n1Cc1ccc(F)cc1)N1CCN(c2nc3ccccc3s2)CC1 | inconclusive: -1.95
O=C(CSc1nnc(C2CC2)n1-c1ccccc1)NCc1ccco1 | inconclusive: -1.98
N=c1c2c(-c3ccccc3)c(-c3ccccc3)n(Cc3ccco3)c2ncn1CCO | inconclusive: -2.61
CCCOc1ccc(/C=N\NC(=O)CCc2n[nH]c(=O)[nH]c2=O)cc1OC | inactive: -0.25
Cc1ccc(C)c(Oc2ncnc(N)c2[N+](=O)[O-])c1 | inactive: 0.21
COc1ccc(OC)c(NC(=O)c2ccno2)c1 | inactive: -0.09
Cc1ccc(Cl)cc1N1CCN(CC(=O)Nc2ccc(CN3CCCCC3)cc2)CC1 | inconclusive: -2.79
C=CCn1c(SCc2cccc(F)c2)nc2cc(C(=O)N3CCC(C(N)=O)CC3)ccc2c1=O | inconclusive: -3.01
O=C(O)c1cc(-c2ccncc2)nc2ccc(F)cc12 | active: 3
O=C(CSc1nc(O)cc(=O)[nH]1)N1c2ccccc2CCc2ccccc21 | inactive: -0.06

2 entries from above in another layout:
Clc1ccc(OCCN2CCN(c3ncnc4sccc34)CC2)cc1
  z-score: inconclusive: -2.78
N#C/C(=C\C1=C(N2CCOCC2)C(=C\c2ccc(Cl)cc2)/CC1)C(=O)Nc1ccccc1F
  z-score: active: 3.27
